{"sequences": {"note": "Chains of the proteins cited; added tags and fusions are not shown. Residues count along the entry.", "UniProt P80188, 21-198 Q48H/C107S": "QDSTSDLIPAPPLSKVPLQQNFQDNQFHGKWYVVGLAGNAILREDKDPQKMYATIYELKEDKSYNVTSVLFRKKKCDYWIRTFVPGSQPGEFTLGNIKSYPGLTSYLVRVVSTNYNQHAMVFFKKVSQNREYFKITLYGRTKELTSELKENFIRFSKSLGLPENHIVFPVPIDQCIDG"}, "source": "patent US10947284B2", "about": "“Fusion molecules” (Pieris Pharmaceuticals GMBH, priority 2015, dated 2021)", "format_in_all_cases": "binding", "key": {"[1]": {"target": "T1, hNGAL (human lipocalin 2, parent wild type SEQ ID NO: 1) mutein SEQ ID NO: 36 (Homo sapiens, UniProt P80188, A60T/C107S/D97H/K145I/K154W/K93R/L123T/L56V/L90R/N85D/Q69G/R101D/R92I/S147R/S88D/T74A/W99Y/Y126Q/Y152I/Y72N)", "T1 construct": "made in house; host or cells: E. coli", "assay": "Surface plasmon resonance (Biacore T200)", "conditions": "SPR, Table 3, high concentrations (≥1 μM)"}, "[2]": {"target": "T2, hNGAL (human lipocalin 2, parent wild type SEQ ID NO: 1) mutein SEQ ID NO: 16 (Homo sapiens, UniProt P80188, A60T/C107S/D97I/I100T/I61A/K145Y/K154N/K93E/K95E/L123Q/L56W/L90Q/N116G/N85D/Q69P/R101I/R92P/S147T/S88D/T156A/T74V/W99S/Y120S/Y126H/Y152G/Y72P)", "T2 construct": "made in house; host or cells: E. coli", "assay": "Surface plasmon resonance (Biacore T200)", "conditions": "SPR, Table 3, high concentrations (≥1 μM)"}, "[3]": {"target": "lipocalin negative control SEQ ID NO: 64 (Homo sapiens, UniProt P80188, C107S/Q48H)", "assay": "Surface plasmon resonance (Biacore T200)", "conditions": "SPR, Table 3"}, "[4]": {"target": "T3, hNGAL (human lipocalin 2, parent wild type SEQ ID NO: 1) mutein SEQ ID NO: 62 (Homo sapiens, UniProt P80188, A60Q/C107S/D65G/D97L/I61W/K145F/K154F/K66R/K93I/L123G/L56H/L90D/N85D/Q69R/R101T/R92A/S147I/S88D/W99R/Y120H/Y126G/Y152A/Y72W)", "T3 construct": "made in house", "assay": "Surface plasmon resonance (Biacore T200), CM5 chip", "conditions": "SPR, Table 3, high concentrations (≥1 μM)"}, "[5]": {"target": "T4, hNGAL (human lipocalin 2, parent wild type SEQ ID NO: 1) mutein SEQ ID NO: 53 (Homo sapiens, UniProt P80188, A60L/C107S/D97K/I61A/K154W/K93H/L123Q/L56E/L62R/L90R/N116L/N85D/Q69M/R101V/S125P/S147V/S88E/W99D/Y120D/Y126E/Y72M)", "T4 construct": "made in house; host or cells: E. coli", "assay": "Surface plasmon resonance (Biacore T200)", "conditions": "SPR, Table 3, high concentrations (≥1 μM)"}}, "note": "At least one structure is not confirmed: it was looked up by name or label, or the drawing left a doubt. Starred links: 1 amine or outer side, 2 acyl side, 3 side chain; linkers in the order of their positions; H or OH if unused. Non-standard residues stand in square brackets, D forms with d. Residues, ends and D or L forms follow the SMILES beside them. *: point of attachment. X1 = O=C([C@@H]1CCNc2c(N[*:1])cc3cc(O)c(O)cc3[n+]21)[*:2]; dOrn(N5-OH,N5-CHO) = N[C@H](CCCN(O)C=O)C(=O)O; d(aThr) = C[C@@H](O)[C@@H](N)C(=O)O; Suc = O=C(CCC(=O)[*:2])[*:1]; X2 = O=C1[C@@H](N*)CCCN1[O-]; Orn = NCCC[C@H](N)C(=O)O"}
{"smiles": "NC(=O)CC[C@H](NC(=O)[C@H](CCCN([O-])C=O)NC(=O)[C@@H]1CCN=C([C@@H](CO)NC(=O)[C@@H]2CCNc3c(NC(=O)CCC(=O)O)cc4cc([O-])c([O-])cc4[n+]32)N1)C(=O)N[C@H](CCC(N)=O)C(=O)N[C@H](CCCN([O-])C=O)C(=O)NCC(=O)O.[Fe+3]", "note": "[Pvd III s (+Fe), Pvd type III succinyl]", "values": [{"measurement": "Specificity (binding)", "setting": "[1]", "value": "−"}, {"measurement": "Specificity (binding)", "setting": "[2]", "value": "−"}, {"measurement": "Specificity (binding)", "setting": "[3]", "value": "−"}, {"measurement": "Specificity (binding)", "setting": "[4]", "value": "−"}]}
{"smiles": "C[C@@H](O)[C@@H](NC(=O)CNC(=O)[C@H](CCCN)NC(=O)[C@@H](CCCN([O-])C=O)NC(=O)[C@@H](CO)NC(=O)[C@@H]1CCNc2c(NC(=O)CCC(=O)O)cc3cc([O-])c([O-])cc3[n+]21)C(=O)N[C@@H](CO)C(=O)N[C@H]1CCCN([O-])C1=O.[Fe+3]", "note": "[Pvd II s (+Fe), Pvd type II succinyl] (Suc-[X1][dS][dOrn(N5-OH,N5-CHO)][Orn]G[d(aThr)]S-X2)", "values": [{"measurement": "Specificity (binding)", "setting": "[1]", "value": "+"}, {"measurement": "Specificity (binding)", "setting": "[2]", "value": "−"}, {"measurement": "Specificity (binding)", "setting": "[5]", "value": "−"}, {"measurement": "Specificity (binding)", "setting": "[3]", "value": "−"}, {"measurement": "Specificity (binding)", "setting": "[4]", "value": "−"}]}
